According to the supplement of paper PMC10735217:
Structures can show the parent of a compound that is named as a salt. The list shows a part of the results. This data set is noisy: repeats of one test often differ as much as different tests do.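 Human kidney-derived cells stably carry a construct in which eight TEAD-binding elements drive luciferase, measured by luminescence in a drug-repurposing library screen. A hit is any compound whose signal exceeds the plate mean by more than five robust Z scores.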

Tested on: HEK293A TEAD-LUC reporter
Test: TEAD-luciferase reporter activity (YAP activation), robust Z score vs plate; higher = stronger YAP/TEAD activation
Details: 24 h

SMILES | TEAD-luciferase reporter activity (compound concentration: 200 nM) | TEAD-luciferase reporter activity (compound concentration: 2 uM) | TEAD-luciferase reporter activity (compound concentration: 10 uM)
C[C@]12CC[C@@H]3c4ccc(OC(=O)N(CCCl)CCCl)cc4CC[C@H]3[C@@H]1CC[C@@H]2O | inactive: -2.34 | inactive: -1.05 | inactive: -0.804
CCC(C)C1(CC)C(=O)N=C([S-])NC1=O (stereo unspecified) [Inactin hydrate] | inactive: -1.98 |  | inactive: 0.0522
COP(=O)(OC)OC=C(Cl)Cl | inactive: 2.93 | inactive: 1.22 | inactive: 2.13
CC(C)N(C(=O)CN1C(=O)C(NC(=O)Nc2cccc(C(=O)O)c2)C(=O)N(c2ccccc2)c2ccccc21)c1ccccc1 (stereo unspecified) | inactive: -1.43 | inactive: -0.617 | inactive: 1.6
CC1(C)C(C=C(Cl)Cl)C1C(=O)OCc1cccc(Oc2ccccc2)c1 (stereo unspecified) [permethrin 5%, Foamix] | inactive: 0.384 |  | inactive: 0.177
CC1(C)C(C=C(Cl)Cl)C1C(=O)OCc1cccc(Oc2ccccc2)c1 (stereo unspecified) [permethrin 5%] |  | inactive: 0.603 | 
C[C@](O)(COc1ccc(C#N)cc1)C(=O)Nc1ccc(C#N)c(C(F)(F)F)c1 [enobosarm] | inactive: -0.165 | inactive: -0.724 | inactive: 3.38
CN1C[C@H]2[C@H]3CC[C@H](C3)[C@@]2(c2ccc(Cl)c(Cl)c2)C1 | inactive: -1.82 | inactive: -1.27 | inactive: 0.752
O=C(C1CCCN1C(=O)C1CC1)N1CCC(N2Cc3ccccc3C2=O)CC1 (stereo unspecified) | inactive: -1.08 |  | inactive: 1.54
CC(=O)[C@@]1(O)CC[C@H]2[C@@H]3CCC4=CC(=O)CC[C@]4(C)[C@@]3(F)[C@@H](O)C[C@@]21C | inactive: -0.339 | inactive: 0.731 | inactive: 3.05
CCCC(C)C1(CC)C(=O)NC(=O)N=C1[O-] (stereo unspecified) | inactive: 0.775 | inactive: 0.41 | inactive: 1.11
CCCCCCCCCCCCCC(=O)O[C@H](CCCCCCCCCCC)CC(=O)N[C@H]1[C@H](OC[C@H]2O[C@H](O)[C@H](NC(=O)C[C@H](O)CCCCCCCCCCC)[C@@H](OC(=O)C[C@H](O)CCCCCCCCCCC)[C@@H]2O)O[C@H](CO)[C@@H](OP(=O)(O)O)[C@@H]1OC(=O)C[C@@H](CCCCCCCCCCC)OC(=O)CCCCCCCCCCCCC [Lipid A monophosphoryl] | inactive: 1.99 |  | inactive: -0.521
CN1C(=O)N(C)C2(CCN(C(=O)C3Cc4cc(Cl)ccc4N3)CC2)C1=O (stereo unspecified) | inactive: -1.27 | inactive: -0.698 | inactive: 1.99
O=C1CN=C(c2ccccc2F)c2cc(Cl)ccc2N1 [metabolite DESALKYLFLURAZEPAM] | inactive: -0.844 |  | inactive: -0.531
N[C@@H](Cc1ccc(O)cc1)C(=O)N[C@H](CCCCNC=O)C(=O)NCC(=O)N[C@@H](Cc1ccccc1)C(=O)N[C@H]1CCSC1=O [ociltide] | inactive: 0.437 | inactive: -1.08 | inactive: 0.437
O[C@H]1[C@H]2[C@H](O)CCCN2C[C@H]1O | active: 5.27 |  | inactive: 1.29
O[C@H]1[C@H]2[C@H](O)CCCN2C[C@H]1O [Tridolgosir] |  | inactive: 3.04 | 

SMILES | TEAD-luciferase reporter activity (compound concentration: 200 nM) | TEAD-luciferase reporter activity (compound concentration: 2 uM) | TEAD-luciferase reporter activity (compound concentration: 10 uM)
CCN1C[C@]2(OC(=O)c3ccccc3NC(C)=O)CCC(OC)C34C2CC([C@H]13)[C@@]1(O)CC(OC)C2CC4[C@]1(O)[C@H]2OC (stereo partly specified) [Allapininum_:_ Lappaconitine] |  | inactive: -0.0961 | 
CCN1C[C@]2(OC(=O)c3ccccc3NC(C)=O)CCC(OC)C34C2CC([C@H]13)[C@@]1(O)CC(OC)C2CC4[C@]1(O)[C@H]2OC (stereo partly specified) [Lappaconitine] | inactive: 1.23 |  | inactive: 4.52
O=C(NCC1CCOCC1)c1cnc(Nc2ccc(Cl)cc2Cl)nc1C(F)(F)F |  | inactive: -1.64 | 
CCS(=O)(=O)n1c2c(c3cc(C(=O)N4CCC(C)CC4)ccc31)CN(C1CCOCC1)CC2 | inactive: -2.25 | inactive: 1.02 | inactive: 0.233
C[C@]12CCC3C4CCC(=O)C=C4CCC3C1CC[C@@H]2O (stereo partly specified) | inactive: 0.213 | inactive: -0.649 | inactive: 1.62
CCN1CCCC12Cc1ccccc1CN(C(=O)Cc1ccccc1)C2 (stereo unspecified) | inactive: 1.97 |  | active: 6.64
CN(c1nc2ccccc2s1)C1CCN(C[C@H](O)COc2ccc(F)c(F)c2)CC1 [Lubeluzole dihydrochloride] | inactive: -1.03 | inactive: -0.444 | inactive: 1.22
COc1ccc(/C=C/C(=O)CC(=O)/C=C/c2ccc(OC)c(OC)c2)cc1OC [Dimethylcurcumin] | inactive: -0.725 | inactive: -2.38 | inactive: -1.44
CC(N)Cc1ccc(O)cc1 (stereo unspecified) | inactive: 1.33 | inactive: 0.224 | inactive: -0.869
CCOC(=O)C(c1c(O)c2ccccc2oc1=O)c1c(O)c2ccccc2oc1=O | inactive: -1.2 | inactive: 0.399 | inactive: 1.9
CC(C)(N)CNC(=O)C[C@H]1CC[C@]2(CC1)OOC1(O2)C2CC3CC(C2)CC1C3 (stereo partly specified) | inactive: -0.597 | inactive: -0.263 | inactive: -0.0828
[2H]c1c([2H])c([2H])c(C([2H])([2H])[2H])c([2H])c1[2H] [Toluene] |  | inactive: 1.75 | inactive: 1.04
COc1cc([C@@H]2c3cc4c(cc3C[C@H]3COC(=O)[C@@H]32)OCO4)cc(OC)c1OC [Deoxypicropodophyllin] | inactive: 4.31 | inactive: 3.42 | inactive: 2.09
C=CCN.ClCC1CO1.O=C(O)O (stereo unspecified) [sevelamer carbonate] | inactive: -0.695 | inactive: -0.00527 | inactive: 0.485
CC(C)(C)C(=O)N1CCCC1C(=O)N1CCC(N2Cc3ccccc3C2=O)CC1 (stereo unspecified) | inactive: -1.53 |  | inactive: 1.62
CC(C)(C)c1cc(NC(=O)[C@@H]2CCCCN2C(=O)N2CCS(=O)(=O)CC2)no1 [cannabinoid receptor-2 agonists] | inactive: 1.79 | inactive: 0.105 | inactive: 2.51

Rewritten comma-delimited: entries from further up.
SMILES,TEAD-luciferase reporter activity (compound concentration: 200 nM),TEAD-luciferase reporter activity (compound concentration: 2 uM),TEAD-luciferase reporter activity (compound concentration: 10 uM)
CC(N)Cc1ccc(O)cc1 (stereo unspecified),inactive: 1.33,inactive: 0.224,inactive: -0.869
CCOC(=O)C(c1c(O)c2ccccc2oc1=O)c1c(O)c2ccccc2oc1=O,inactive: -1.2,inactive: 0.399,inactive: 1.9
